{"source": "PubChem BioAssay AID504467", "about": "(National Center for Advancing Translational Sciences (NCATS), 2011)", "note": "In all, about 330,000 compounds went through this assay and about 7,700 (2.3%) were called active. Inconclusive results, whose numbers are uncertain, are shown with a selection of clear calls. The call rests on the fitted dose curve; in most records, active means well fitted inhibition curve with a large enough effect; inconclusive means small, poorly fitted or top-dose-only effect, or effect the other way; inactive means flat fitted curve, though single readings scatter. Where the call is inconclusive, the potency comes from a doubtful curve fit. Potency means the concentration at half of the fitted maximal effect.", "data": [{"assay": "qHTS screen for small molecules that inhibit ELG1-dependent DNA repair in human embryonic kidney (HEK293T) cells expressing luciferase-tagged ELG1; further: nearly all actives have a fitted effect of over 55% in size", "settings": "HEK293T ELG1-luciferase reporter, luminescence, 16 h, DNA damage induced by 5-fluorouridine; series mostly up to 46.1 µM", "in_short": "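Overnight (16 hr) co-exposure of 2,000 cells/well to 5-fluorouridine and compound at 37 °C preceded detection. Luciferase was quantified via ONE-Glo luminescence; loss of signal denotes inhibition.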", "values": [{"smiles": "CCc1nnc(NC(=O)c2ccc(COc3ccccc3)o2)s1", "Potency": "inactive"}, {"smiles": "COc1ccc(CCC(=O)N2CCN(S(=O)(=O)c3ccc(OC)cc3)CC2)cc1", "Potency": "inactive"}, {"smiles": "COc1ccc(CNC(=S)NCc2ccc(OC(C)C)cc2)cc1", "Potency": "inactive"}, {"smiles": "Cc1ccc(C(=O)OCC(=O)N2CCNC2=O)c(C)c1", "Potency": "inconclusive: 14.6 µM [activator, partial curve]"}, {"smiles": "CC(C)CCSc1nc2ccccc2[nH]1", "Potency": "inconclusive: 7.3 µM [activator, partial curve]"}, {"smiles": "Nc1ccc(S(=O)(=O)N2CCCC2)cc1Cl", "Potency": "inactive"}, {"smiles": "COC(=O)C/C=C/[C@@H](C)[C@@H](/C=N/OC[C@H]1O[C@H](c2ccccc2)C=C[C@@H]1Oc1ccc(OC)cc1)NS(=O)(=O)c1ccc(C)cc1", "Potency": "inconclusive: 14.6 µM [inhibitor, single point]"}, {"smiles": "COc1ccccc1NC(=O)c1cc[n+](C)cc1", "Potency": "inactive"}, {"smiles": "CCOc1cc(C(=O)Nc2ccccc2F)cc(Br)c1OCC", "Potency": "inconclusive: 20.6 µM [inhibitor, single point]"}, {"smiles": "O=C(NCCN1CCCC1)c1ccc2c(c1)N(Cc1ccccc1)C(=O)c1ccccc1S2(=O)=O", "Potency": "inactive"}, {"smiles": "Cc1ccc(Nc2nc(N)nc(CN3CCN(Cc4ccc5c(c4)OCO5)CC3)n2)cc1Cl", "Potency": "inconclusive: 22.4 µM [inhibitor, partial curve, poor fit]"}, {"smiles": "O=C(NCCc1ccccc1)C1=COCCO1", "Potency": "inconclusive: 9.2 µM [activator, partial curve]"}, {"smiles": "Cc1cc(N2CCOCC2)n2nc(C)c(-c3ccccc3Cl)c2n1", "Potency": "inconclusive: 16.4 µM [inhibitor, partial curve]"}, {"smiles": "Cc1sc(NC(=O)COc2cccc(-n3cnnn3)c2)c(C#N)c1C", "Potency": "inconclusive: 32.6 µM [inhibitor, single point]"}, {"smiles": "O=C(CN(C(=O)Cn1nnc(-c2ccc(F)cc2)n1)c1cnc2ccccc2c1)NCC1CCCO1", "note": "(stereo not given)", "Potency": "inconclusive: 10.3 µM [inhibitor, partial curve]"}, {"smiles": "COc1ccc2nc(NC(=O)CSCC(=O)Nc3cc(C)on3)sc2c1", "Potency": "inconclusive: 23.1 µM [activator, single point]"}, {"smiles": "CCC(c1nnnn1C(C)(C)CC)N(CCCO)Cc1cc2cc(C)cc(C)c2[nH]c1=O", "note": "(stereo not given)", "Potency": "inactive"}, {"smiles": "O=C(Cc1ccc(Cl)cc1)NNC(=O)Nc1cccc2ccccc12", "Potency": "inconclusive: 32.6 µM [activator, partial curve, poor fit]"}, {"smiles": "O=C(CSc1nnc(-c2cc3ccccc3cc2O)n1Cc1ccco1)N1CCc2ccccc2C1", "Potency": "inconclusive: 29.1 µM [inhibitor, single point]"}, {"smiles": "CCC(C)(C)NC(=O)c1ccccc1Oc1ccccc1", "Potency": "inconclusive: 5.8 µM [activator, partial curve, poor fit]"}, {"smiles": "CCCC(=O)OC1CC(C)N(C(=O)c2ccccc2)c2ccc(C)cc21", "note": "(stereo not given)", "Potency": "inconclusive: 29.1 µM [inhibitor, partial curve, poor fit]"}, {"smiles": "CCOc1ccc(Cc2c(C)[nH]c3ccc(C(=O)O)cc3c2=S)cc1", "Potency": "inactive"}, {"smiles": "Cc1cc2oc(=O)cc(CN3CCC(C)CC3)c2c(C)c1Cl", "Potency": "inconclusive: 20.6 µM [activator, partial curve]"}, {"smiles": "CCN(CC)S(=O)(=O)c1cccc(NC(=O)COC(=O)CCC(=O)c2ccc(F)cc2)c1", "Potency": "inconclusive: 23.1 µM [activator, partial curve, poor fit]"}, {"smiles": "Cc1nnc(N2CCC(C(=O)N3CCCCC3)CC2)c2nn(-c3ccc(Cl)cc3)c(C)c12", "Potency": "inconclusive: 18.3 µM [inhibitor, partial curve]"}, {"smiles": "O=c1oc2ccccc2cc1-c1cn(-c2ccccc2)c(=S)[nH]1", "Potency": "inconclusive: 0.259 µM [activator, partial curve, poor fit]"}, {"smiles": "O=C(CNS(=O)(=O)c1ccc(Br)s1)NCc1ccccc1", "Potency": "inactive"}, {"smiles": "Cc1cc(C)cc(OCC(=O)OC(C)C(=O)Nc2ccc(Cl)cn2)c1", "note": "(stereo not given)", "Potency": "inconclusive: 0.651 µM [inhibitor, single point]"}, {"smiles": "CCCCN1C(=O)/C(=C(/C#N)C(N)=O)c2ccccc21", "Potency": "inconclusive: 23.1 µM [activator, partial curve, poor fit]"}, {"smiles": "CCC1CCCCN1C(=O)CCCc1ccccc1", "note": "(stereo not given)", "Potency": "inconclusive: 7.3 µM [activator, partial curve, poor fit]"}, {"smiles": "CCOc1cc(C(=O)Nc2ccc(N3CCN(C(C)=O)CC3)cc2)cc(OCC)c1OCC", "Potency": "inconclusive: 25.9 µM [inhibitor, single point]"}, {"smiles": "Cc1cc(SCNC(=O)c2ccccc2)ncn1", "Potency": "inactive"}, {"smiles": "CC1CCCC(C)N1C(=O)COC(=O)COc1ccccc1C#N", "note": "(stereo not given)", "Potency": "inconclusive: 11.6 µM [activator, partial curve]"}, {"smiles": "COc1ccc(Nc2cccc3ccccc23)cc1", "Potency": "inconclusive: 3.16 µM [activator, partial curve]"}, {"smiles": "Cc1occc1-c1nnc(SCCCC(=O)c2ccc(F)cc2)n1C", "Potency": "inactive"}, {"smiles": "Cc1noc(C)c1CSc1nc2sc3c(c2c(=O)n1C)CCCC3", "Potency": "active: 23.1 µM"}, {"smiles": "COc1cc(/C=C2\\CC/C(=C\\c3cc(OC)c(O)c(OC)c3)C2=O)cc(OC)c1O", "Potency": "active: 7.31 µM"}, {"smiles": "COC(=O)C1=CN(Cc2ccc(OC)c(OC)c2)C=C(C(=O)OC)C1c1cccc(OC)c1OC", "Potency": "inactive"}, {"smiles": "COc1cc(/C=N/NC(=O)C2C3CCCCC32C)cc(Br)c1O", "note": "(stereo not given)", "Potency": "inactive"}, {"smiles": "CCOc1ccc(CN2CCN(C(=O)c3cccc4ccccc34)CC2)cc1", "Potency": "inconclusive: 18.3 µM [inhibitor, partial curve]"}, {"smiles": "COc1ccc(S(=O)(=O)Nc2ccncc2)c(C)c1C", "Potency": "inactive"}, {"smiles": "CC(Oc1cccc(Cl)c1)C(=O)Nc1cc(S(=O)(=O)N2CCCCC2)ccc1N1CCOCC1", "note": "(stereo not given)", "Potency": "inconclusive: 22.4 µM [inhibitor, single point]"}, {"smiles": "CCCCNc1c(-c2ccc(OC)c(SC3CCCCC3)c2)nc2cc(C)ccn12", "Potency": "inconclusive: 3.16 µM [inhibitor, single point]"}, {"smiles": "COc1ccc(S(=O)(=O)N2CCCCC2)cc1NS(=O)(=O)c1cc(Cl)ccc1Cl", "Potency": "inactive"}, {"smiles": "CCOc1ccc(S(=O)(=O)N2CCCC(C(=O)Nc3cccc(C)c3)C2)cc1", "note": "(stereo not given)", "Potency": "inconclusive: 16.4 µM [inhibitor, single point]"}]}]}
